Results as given in the supplement of paper PMC12872613.
Structures can show the parent of a compound that is named as a salt. Some of the results follow. No stated cut-off is given here; in the data, active = 0.7 or more and inactive = the rest. Repeats are few or missing, and single values can be far off.

Test system: MiaPaCa-2 CLSA-25
Test: cell death relative to DMSO vehicle (fraction); higher = more cytotoxic
Conditions: 5 µM; treatment time 48 h; medium cystine 25 µM

Structure (SMILES)	cell death
O=C(O)[C@@H]1CCCCN1 [L-Pipecolic acid]	inactive: 0.0776
N=C(N)NCCC[C@H](N)C(=O)O [L-Arginine]	active: 0.835
O=C1OCCN1/N=C/c1ccc([N+](=O)[O-])o1 [Furazolidone]	inactive: 0.527
CC#CCn1c(N2CCC[C@@H](N)C2)nc2c1c(=O)n(Cc1nc(C)c3ccccc3n1)c(=O)n2C [Linagliptin]	inactive: 0.595
CC(C)(C)NC(=O)[C@H]1CC[C@H]2[C@@H]3CC[C@H]4NC(=O)C=C[C@]4(C)[C@H]3CC[C@]12C [Finasteride]	inactive: 0.132
C[C@@H]1O[C@@H](O[C@H]2[C@H](Oc3cc(O)c4c(c3)O[C@H](c3ccc(O)cc3)CC4=O)O[C@H](CO)[C@@H](O)[C@@H]2O)[C@H](O)[C@H](O)[C@H]1O [Naringin]	inactive: 0.0201
Cc1c(O)cccc1C(=O)N[C@@H](CSc1ccccc1)[C@H](O)CN1C[C@H]2CCCC[C@H]2C[C@H]1C(=O)NC(C)(C)C [Nelfinavir Mesylate]	inactive: 0.522
COc1ccc2[nH]c([S+]([O-])Cc3ncc(C)c(OC)c3C)nc2n1 (stereo not given) [Tenatoprazole]	inactive: 0.164
CC1=C(C)C(=O)C(C(CCCCCC(=O)O)c2ccccc2)=C(C)C1=O (stereo not given) [Seratrodast]	inactive: 0.168
CCOC(=O)[C@H](CCc1ccccc1)N[C@@H](C)C(=O)N1Cc2ccccc2C[C@H]1C(=O)O [Quinapril hydrochloride]	inactive: 0.155
CC(c1cc2ccccc2s1)N(O)C(N)=O (stereo not given) [Zileuton]	inactive: 0.0936
O=C(O)/C=C/c1ccc(Cn2ccnc2)cc1 [Ozagrel]	inactive: 0.205
CC(C)C[C@@H](C(=O)N[C@H](C(=O)OC1CCCC1)c1ccccc1)[C@H](O)C(=O)NO [Tosedostat]	inactive: 0.1
COC(=O)N[C@H](C(=O)N1CC2(CC2)C[C@H]1c1ncc(-c2ccc3c(c2)C(F)(F)c2cc(-c4ccc5nc([C@@H]6[C@H]7CC[C@H](C7)N6C(=O)[C@@H](NC(=O)OC)C(C)C)[nH]c5c4)ccc2-3)[nH]1)C(C)C [Ledipasvir acetone]	inactive: 0.643
CCCCCCCCCCC[C@@H](C[C@@H]1OC(=O)[C@H]1CCCCCC)OC(=O)[C@H](CC(C)C)NC=O [Orlistat]	inactive: 0.362
CC(C)CN(C[C@@H](O)[C@H](Cc1ccccc1)NC(=O)O[C@H]1CCOC1)S(=O)(=O)c1ccc(N)cc1 [Amprenavir]	inactive: 0.052
O=C(NCc1ccc2c(c1)OCO2)c1c(Cl)cccc1Cl	inactive: 0.599
C[C@]12C=CC(=O)C=C1CC[C@@H]1[C@@H]2[C@@H](O)C[C@@]2(C)[C@H]1CC[C@]2(O)C(=O)COP(=O)(O)O [Prednisolone phosphate sodium]	inactive: 0.631
Cc1ccc(-c2csc3ncnc(SCCC(=O)O)c23)cc1	inactive: 0.667
Cc1cc(SCc2sc(-c3ccc(C(F)(F)F)cc3)nc2C)ccc1OCC(=O)O	inactive: 0.574

Structure (SMILES)	cell death
Cc1ccc(C(=O)c2cc(O)c(O)c([N+](=O)[O-])c2)cc1 [Tolcapone]	inactive: 0.219
Cc1cc2nc3c(=O)[nH]c(=O)nc-3n(C[C@H](O)[C@H](O)[C@H](O)COP(=O)(O)O)c2cc1C [Flavin mononucleotide]	inactive: 0.0138
COc1ccccc1OCC(O)CN1CCN(CC(=O)Nc2c(C)cccc2C)CC1 (stereo not given) [Ranolazine dihydrochloride]	inactive: 0.135
CN(C)c1ccc(C(c2ccc(N(C)C)cc2)c2cc([N+](=O)[O-])ccc2Cl)cc1	inactive: 0.0097
CC(C)CCCC(C)C1CCC2C3=CC=C4CC(O)CCC4(C)C3CCC21C (stereo not given) [7-Dehydrocholesterol]	inactive: 0.522
NC(=O)c1ncn([C@@H]2O[C@H](CO)[C@@H](O)[C@H]2O)n1 [Ribavirin]	inactive: 0.198
Nc1ccccc1C(=O)C[C@H](N)C(=O)O [L-Kynurenine]	inactive: 0.0597
OCC(CO)N[C@H]1C[C@](O)(CO)[C@@H](O)[C@H](O)[C@H]1O [Voglibose]	inactive: 0.557
NNC(=O)c1ccncc1.Nc1ccc(C(=O)O)c(O)c1 [Pasiniazid]	inactive: 0.228
C#CCN(C)CCCOc1ccc(Cl)cc1Cl [Clorgyline hydrochloride]	inactive: 0.124
O=C(Nc1ccncc1)c1cc([N+](=O)[O-])ccc1Cl	inactive: 0.338
COc1c(C)c2c(c(O)c1C/C=C(\C)CCC(=O)OCCN1CCOCC1)C(=O)OC2 [Mycophenolate Mofetil]	inactive: 0.0851
COc1ccc(CNc2nc(N3CCC[C@H]3CO)ncc2C(=O)NCc2ncccn2)cc1Cl [Avanafil]	inactive: 0.181
O=C(NCCS(=O)(=O)c1ccc(C(F)(F)F)cn1)c1ccc(Cl)cc1	inactive: 0.254
CC(C)c1c(C(=O)Nc2ccccc2)c(-c2ccccc2)c(-c2ccc(F)cc2)n1CC[C@@H](O)C[C@@H](O)CC(=O)O [Atorvastatin Calcium]	inactive: 0.464
O=C1[C@H](CC[C@H](O)c2ccc(F)cc2)[C@@H](c2ccc(O)cc2)N1c1ccc(F)cc1 [Ezetimibe]	inactive: 0.16
C[N+](C)(C)CCO.[Cl-] [Choline chloride]	inactive: 0.634
CN(Cc1cnc2nc(N)nc(N)c2n1)c1ccc(C(=O)N[C@@H](CCC(=O)O)C(=O)O)cc1 [Methotrexate]	inactive: 0.358
O=C(O)c1ccccn1 [2-Picolinic acid]	inactive: 0.326
O=C(NO)c1cnc(NC2(c3ccccc3)CC2)nc1	inactive: 0.679

Rewritten as a markdown table: entries from further up

| Structure (SMILES) | cell death |
| --- | --- |
| Cc1ccc(C(=O)c2cc(O)c(O)c([N+](=O)[O-])c2)cc1 [Tolcapone] | inactive: 0.219 |
| Cc1cc2nc3c(=O)[nH]c(=O)nc-3n(C[C@H](O)[C@H](O)[C@H](O)COP(=O)(O)O)c2cc1C [Flavin mononucleotide] | inactive: 0.0138 |
| COc1ccccc1OCC(O)CN1CCN(CC(=O)Nc2c(C)cccc2C)CC1 (stereo not given) [Ranolazine dihydrochloride] | inactive: 0.135 |
